Reference: US20210085721A1
Results are given in words; binding and its absence hold for the method and conditions named. Some entries that bind do so weakly or less than the wild type. Blank lines part the entries; values can stand above or below the substance they belong to.

Sequences of proteins named here, by UniProt entry; tags and fusion partners are left off. A change or cut given only in a name is not applied to a line headed by its entry. Residues count along the entry.
UniProt P06239, residues 2-509: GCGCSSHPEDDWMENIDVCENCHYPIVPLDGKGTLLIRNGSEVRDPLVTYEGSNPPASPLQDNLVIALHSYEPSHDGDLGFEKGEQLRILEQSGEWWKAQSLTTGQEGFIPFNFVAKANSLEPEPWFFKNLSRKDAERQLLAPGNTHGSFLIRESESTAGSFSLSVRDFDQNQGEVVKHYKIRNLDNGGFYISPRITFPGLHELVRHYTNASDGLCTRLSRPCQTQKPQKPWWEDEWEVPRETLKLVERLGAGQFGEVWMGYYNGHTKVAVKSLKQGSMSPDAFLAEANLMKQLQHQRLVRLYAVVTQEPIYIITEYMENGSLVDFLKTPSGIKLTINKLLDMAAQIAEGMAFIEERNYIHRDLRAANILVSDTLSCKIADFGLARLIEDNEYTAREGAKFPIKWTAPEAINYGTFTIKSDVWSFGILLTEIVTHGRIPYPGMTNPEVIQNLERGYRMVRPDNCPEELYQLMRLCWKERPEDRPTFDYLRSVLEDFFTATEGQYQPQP
UniProt P01732: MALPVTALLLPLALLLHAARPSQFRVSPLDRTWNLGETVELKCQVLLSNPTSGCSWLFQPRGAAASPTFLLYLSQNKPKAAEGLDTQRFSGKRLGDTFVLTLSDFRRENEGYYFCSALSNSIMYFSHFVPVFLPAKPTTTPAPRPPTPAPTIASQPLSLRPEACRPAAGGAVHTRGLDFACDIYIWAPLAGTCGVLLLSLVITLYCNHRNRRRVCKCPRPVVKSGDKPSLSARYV

Legend:
LCK [1] = biological target: LCK (UniProt P06239); test: method not described; rank order of LCK affinity among CD8 Products 1-4
LCK [2] = biological target: LCK (UniProt P06239); test: method not described; rank order of LCK affinity among CD8 Products 1-4 (second highest)
LCK [3] = biological target: LCK (UniProt P06239); test: method not described; rank order of LCK affinity among CD8 Products 1-4 (second lowest)

- binding (LCK [1]): binds
Substance: CD8α homodimer (exogenous CD8 of CD8 Construct 1 / CD8 Product 1) (from UniProt P01732 22-235) (receptor)

- binding (LCK [2]): binds
Substance: CD8α with CD8β intracellular domain (exogenous CD8 of CD8 Construct 3 / CD8 Product 3) (from UniProt P01732 22-203) (receptor)

- binding (LCK [3]): binds
Substance: CD8α-P2A-CD8β (exogenous CD8α and CD8β of CD8 Construct 2 / CD8 Product 2) (from UniProt P01732 22-235; P10966 22-210) (receptor)
